In the supplement of paper PMC10849652:
This is one part of the list.

Sequences of proteins named here, by UniProt entry; tags and fusion partners are left off. A change or cut given only in a name is not applied to a line headed by its entry.
UniProt P31943: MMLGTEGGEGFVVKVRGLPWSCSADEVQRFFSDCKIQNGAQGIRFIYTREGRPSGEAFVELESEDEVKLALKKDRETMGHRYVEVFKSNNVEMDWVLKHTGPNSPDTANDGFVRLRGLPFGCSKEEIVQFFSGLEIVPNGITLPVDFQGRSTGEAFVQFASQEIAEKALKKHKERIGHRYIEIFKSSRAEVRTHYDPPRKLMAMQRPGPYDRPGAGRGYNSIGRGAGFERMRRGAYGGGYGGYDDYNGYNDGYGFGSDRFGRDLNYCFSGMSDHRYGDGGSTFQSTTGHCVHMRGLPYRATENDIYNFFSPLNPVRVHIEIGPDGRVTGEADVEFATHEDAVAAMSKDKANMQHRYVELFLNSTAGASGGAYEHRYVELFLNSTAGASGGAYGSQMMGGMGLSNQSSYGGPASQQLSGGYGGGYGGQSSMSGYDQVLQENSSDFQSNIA
UniProt Q5GLZ8: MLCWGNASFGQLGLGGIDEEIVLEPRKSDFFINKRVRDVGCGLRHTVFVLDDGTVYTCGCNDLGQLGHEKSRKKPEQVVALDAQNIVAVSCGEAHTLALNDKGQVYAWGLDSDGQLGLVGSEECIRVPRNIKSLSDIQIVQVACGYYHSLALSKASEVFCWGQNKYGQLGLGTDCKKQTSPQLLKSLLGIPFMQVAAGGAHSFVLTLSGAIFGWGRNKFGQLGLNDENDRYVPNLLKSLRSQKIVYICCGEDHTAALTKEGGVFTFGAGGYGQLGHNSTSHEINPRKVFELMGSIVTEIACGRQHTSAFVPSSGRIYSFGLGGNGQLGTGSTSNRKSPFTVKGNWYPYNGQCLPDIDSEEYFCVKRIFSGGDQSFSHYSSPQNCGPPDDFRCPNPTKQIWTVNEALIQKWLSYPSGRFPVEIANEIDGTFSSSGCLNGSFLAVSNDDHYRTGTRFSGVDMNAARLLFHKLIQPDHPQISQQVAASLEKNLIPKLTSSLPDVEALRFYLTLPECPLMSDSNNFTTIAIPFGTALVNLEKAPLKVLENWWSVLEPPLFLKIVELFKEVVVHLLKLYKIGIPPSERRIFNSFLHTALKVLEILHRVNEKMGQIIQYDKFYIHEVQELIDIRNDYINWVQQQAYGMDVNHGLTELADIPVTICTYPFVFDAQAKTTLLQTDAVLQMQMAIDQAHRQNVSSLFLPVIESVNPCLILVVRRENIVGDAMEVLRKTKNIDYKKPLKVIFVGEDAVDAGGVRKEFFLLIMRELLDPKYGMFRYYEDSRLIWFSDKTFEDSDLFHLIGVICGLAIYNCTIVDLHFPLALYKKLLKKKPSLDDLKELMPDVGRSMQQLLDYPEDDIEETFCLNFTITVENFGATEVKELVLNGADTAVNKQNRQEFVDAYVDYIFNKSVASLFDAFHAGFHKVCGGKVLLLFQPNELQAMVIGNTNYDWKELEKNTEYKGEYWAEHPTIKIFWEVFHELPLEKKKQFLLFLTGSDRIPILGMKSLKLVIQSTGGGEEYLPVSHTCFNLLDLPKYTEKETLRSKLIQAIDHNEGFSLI
UniProt Q99729: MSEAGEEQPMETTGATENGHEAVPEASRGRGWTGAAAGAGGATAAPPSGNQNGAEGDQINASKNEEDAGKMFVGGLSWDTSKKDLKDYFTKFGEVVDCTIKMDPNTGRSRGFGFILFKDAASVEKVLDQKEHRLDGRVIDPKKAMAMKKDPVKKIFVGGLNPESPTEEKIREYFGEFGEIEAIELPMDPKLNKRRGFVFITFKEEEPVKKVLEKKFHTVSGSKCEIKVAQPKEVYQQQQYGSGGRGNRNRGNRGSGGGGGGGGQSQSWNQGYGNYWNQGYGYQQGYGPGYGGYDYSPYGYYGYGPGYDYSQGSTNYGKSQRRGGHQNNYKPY
UniProt Q8TCT9: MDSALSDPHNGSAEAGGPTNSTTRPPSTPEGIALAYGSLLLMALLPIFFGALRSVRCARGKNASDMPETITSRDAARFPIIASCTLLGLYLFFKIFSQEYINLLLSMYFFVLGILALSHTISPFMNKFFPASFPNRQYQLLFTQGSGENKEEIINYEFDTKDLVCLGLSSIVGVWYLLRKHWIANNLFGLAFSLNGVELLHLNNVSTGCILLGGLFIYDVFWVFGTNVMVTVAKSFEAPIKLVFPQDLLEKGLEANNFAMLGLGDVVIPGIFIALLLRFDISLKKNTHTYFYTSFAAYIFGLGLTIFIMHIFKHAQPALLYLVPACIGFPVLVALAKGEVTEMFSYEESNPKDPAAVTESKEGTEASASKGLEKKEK
UniProt P17482: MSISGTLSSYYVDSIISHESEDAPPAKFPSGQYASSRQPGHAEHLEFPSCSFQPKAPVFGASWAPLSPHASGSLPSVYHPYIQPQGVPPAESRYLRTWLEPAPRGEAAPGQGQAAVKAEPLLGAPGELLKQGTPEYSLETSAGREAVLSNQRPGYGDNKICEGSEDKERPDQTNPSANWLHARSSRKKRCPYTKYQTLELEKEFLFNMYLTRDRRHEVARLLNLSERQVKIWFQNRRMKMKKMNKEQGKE
UniProt H0YH80: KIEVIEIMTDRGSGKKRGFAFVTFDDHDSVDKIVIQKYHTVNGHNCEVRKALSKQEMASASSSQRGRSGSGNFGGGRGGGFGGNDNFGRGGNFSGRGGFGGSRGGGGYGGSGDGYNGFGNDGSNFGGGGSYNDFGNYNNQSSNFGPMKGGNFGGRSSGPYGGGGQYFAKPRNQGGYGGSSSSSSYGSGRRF
UniProt Q03014: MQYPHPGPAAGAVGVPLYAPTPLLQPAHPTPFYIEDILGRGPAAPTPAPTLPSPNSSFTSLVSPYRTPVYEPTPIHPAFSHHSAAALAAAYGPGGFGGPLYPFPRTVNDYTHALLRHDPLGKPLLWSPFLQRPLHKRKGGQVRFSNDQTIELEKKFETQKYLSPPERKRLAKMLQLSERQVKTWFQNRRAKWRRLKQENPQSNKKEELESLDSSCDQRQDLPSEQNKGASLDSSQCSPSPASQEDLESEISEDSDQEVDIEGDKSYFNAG
UniProt O75146: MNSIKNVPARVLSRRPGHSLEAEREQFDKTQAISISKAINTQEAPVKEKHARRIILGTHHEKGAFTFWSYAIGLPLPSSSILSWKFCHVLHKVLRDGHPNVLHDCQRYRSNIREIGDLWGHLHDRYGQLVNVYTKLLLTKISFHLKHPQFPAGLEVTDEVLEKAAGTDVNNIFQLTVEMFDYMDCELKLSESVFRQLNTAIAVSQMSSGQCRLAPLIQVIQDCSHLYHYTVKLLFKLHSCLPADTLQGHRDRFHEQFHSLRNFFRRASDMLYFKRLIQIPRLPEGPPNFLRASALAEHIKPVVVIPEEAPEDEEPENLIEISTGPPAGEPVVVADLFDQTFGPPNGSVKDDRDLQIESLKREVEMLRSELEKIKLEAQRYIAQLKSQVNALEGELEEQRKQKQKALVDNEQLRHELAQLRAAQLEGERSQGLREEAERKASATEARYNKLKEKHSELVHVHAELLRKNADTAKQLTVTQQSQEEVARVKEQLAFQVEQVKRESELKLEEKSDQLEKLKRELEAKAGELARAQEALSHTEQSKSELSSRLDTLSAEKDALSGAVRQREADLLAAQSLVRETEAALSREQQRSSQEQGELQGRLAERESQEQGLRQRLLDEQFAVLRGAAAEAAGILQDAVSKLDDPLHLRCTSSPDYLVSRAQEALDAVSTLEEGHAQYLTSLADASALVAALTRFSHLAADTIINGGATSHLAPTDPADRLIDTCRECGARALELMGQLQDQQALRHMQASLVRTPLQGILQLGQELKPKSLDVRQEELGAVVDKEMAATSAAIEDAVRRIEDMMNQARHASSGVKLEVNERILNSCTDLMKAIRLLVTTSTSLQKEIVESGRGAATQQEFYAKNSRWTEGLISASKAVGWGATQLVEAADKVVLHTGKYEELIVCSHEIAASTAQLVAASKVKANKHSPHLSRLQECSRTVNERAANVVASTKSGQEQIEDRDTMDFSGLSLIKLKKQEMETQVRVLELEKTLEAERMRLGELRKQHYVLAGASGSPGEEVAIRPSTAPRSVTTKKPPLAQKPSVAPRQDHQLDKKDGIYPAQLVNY
UniProt Q15651: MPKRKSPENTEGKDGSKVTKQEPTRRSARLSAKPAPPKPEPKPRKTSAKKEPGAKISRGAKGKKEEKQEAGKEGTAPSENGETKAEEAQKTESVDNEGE
UniProt Q9Y5Z4: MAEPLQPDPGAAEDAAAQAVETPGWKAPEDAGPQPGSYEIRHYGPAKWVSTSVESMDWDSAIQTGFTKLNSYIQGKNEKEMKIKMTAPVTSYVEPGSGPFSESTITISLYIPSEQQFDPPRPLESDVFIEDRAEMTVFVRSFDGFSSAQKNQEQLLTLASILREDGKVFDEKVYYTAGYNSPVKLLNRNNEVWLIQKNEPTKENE
UniProt P42694: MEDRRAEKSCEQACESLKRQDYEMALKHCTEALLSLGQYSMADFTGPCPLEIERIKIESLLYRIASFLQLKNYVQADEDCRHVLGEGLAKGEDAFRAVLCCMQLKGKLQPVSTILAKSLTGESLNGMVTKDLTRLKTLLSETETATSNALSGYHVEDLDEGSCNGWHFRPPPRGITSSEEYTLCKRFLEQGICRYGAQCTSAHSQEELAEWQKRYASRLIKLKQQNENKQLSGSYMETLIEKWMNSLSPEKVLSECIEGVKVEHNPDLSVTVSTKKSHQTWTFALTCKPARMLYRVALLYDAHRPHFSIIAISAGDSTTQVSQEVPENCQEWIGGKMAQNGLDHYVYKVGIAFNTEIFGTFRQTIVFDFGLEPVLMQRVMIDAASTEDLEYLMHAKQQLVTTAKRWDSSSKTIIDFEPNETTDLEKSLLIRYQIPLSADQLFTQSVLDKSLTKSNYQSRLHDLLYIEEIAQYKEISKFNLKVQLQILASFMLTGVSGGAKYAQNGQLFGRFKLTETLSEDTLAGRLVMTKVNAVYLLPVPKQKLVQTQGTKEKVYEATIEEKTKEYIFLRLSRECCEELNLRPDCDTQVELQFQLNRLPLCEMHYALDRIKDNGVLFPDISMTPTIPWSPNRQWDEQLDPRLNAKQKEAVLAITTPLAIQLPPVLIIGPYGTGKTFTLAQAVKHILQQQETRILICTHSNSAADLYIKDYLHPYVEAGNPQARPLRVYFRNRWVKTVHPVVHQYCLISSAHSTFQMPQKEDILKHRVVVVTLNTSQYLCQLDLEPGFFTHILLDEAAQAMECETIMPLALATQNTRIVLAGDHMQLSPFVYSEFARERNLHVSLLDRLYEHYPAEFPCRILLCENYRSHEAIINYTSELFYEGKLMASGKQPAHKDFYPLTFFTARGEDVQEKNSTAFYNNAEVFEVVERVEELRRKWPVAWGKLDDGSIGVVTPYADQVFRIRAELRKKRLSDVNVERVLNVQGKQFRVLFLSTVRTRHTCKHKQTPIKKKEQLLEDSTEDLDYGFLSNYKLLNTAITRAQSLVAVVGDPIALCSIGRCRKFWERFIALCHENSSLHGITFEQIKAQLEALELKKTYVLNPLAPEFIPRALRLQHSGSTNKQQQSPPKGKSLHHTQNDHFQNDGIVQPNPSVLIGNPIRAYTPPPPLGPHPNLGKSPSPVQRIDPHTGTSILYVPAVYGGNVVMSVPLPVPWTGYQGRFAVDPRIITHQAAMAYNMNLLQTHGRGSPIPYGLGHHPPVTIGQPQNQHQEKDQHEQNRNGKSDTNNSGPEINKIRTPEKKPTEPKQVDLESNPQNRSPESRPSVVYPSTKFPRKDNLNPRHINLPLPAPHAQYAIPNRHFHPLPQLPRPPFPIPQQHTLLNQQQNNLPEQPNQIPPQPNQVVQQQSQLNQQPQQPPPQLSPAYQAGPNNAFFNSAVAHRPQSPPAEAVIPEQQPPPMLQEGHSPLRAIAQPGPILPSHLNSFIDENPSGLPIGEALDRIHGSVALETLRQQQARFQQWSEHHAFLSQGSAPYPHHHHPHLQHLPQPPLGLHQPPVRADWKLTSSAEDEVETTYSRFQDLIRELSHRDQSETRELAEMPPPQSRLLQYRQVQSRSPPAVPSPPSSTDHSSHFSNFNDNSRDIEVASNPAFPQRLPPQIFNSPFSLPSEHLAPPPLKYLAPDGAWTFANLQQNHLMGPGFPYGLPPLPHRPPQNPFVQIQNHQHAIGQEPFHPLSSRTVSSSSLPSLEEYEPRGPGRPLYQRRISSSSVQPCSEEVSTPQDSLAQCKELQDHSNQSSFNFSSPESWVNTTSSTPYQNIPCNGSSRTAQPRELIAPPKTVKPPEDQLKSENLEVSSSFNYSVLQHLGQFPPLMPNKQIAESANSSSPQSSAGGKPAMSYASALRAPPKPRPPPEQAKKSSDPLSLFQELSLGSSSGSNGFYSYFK
UniProt Q14103: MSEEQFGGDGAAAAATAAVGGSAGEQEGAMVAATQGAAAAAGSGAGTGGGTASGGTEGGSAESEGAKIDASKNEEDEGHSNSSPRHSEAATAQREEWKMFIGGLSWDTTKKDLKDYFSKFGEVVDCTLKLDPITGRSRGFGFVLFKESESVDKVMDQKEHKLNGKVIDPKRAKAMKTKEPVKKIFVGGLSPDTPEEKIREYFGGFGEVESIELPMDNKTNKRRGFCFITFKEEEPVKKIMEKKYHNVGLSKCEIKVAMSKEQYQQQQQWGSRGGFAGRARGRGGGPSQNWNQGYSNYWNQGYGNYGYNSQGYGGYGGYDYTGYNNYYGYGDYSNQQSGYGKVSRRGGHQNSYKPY

Experiments:
Experiment in all cases: log2 fold change, soluble protein after heating vs DMSO (PISA); higher = thermal stabilisation; K562 lysate, 10 uM; active = over 0.2 and 3.5 SD of the protein, either way, in both replicates (recomputed)
ibrutinib = compound: C=CC(=O)N1CCC[C@@H](n2nc(-c3ccc(Oc4ccccc4)cc3)c3c(N)ncnc32)C1 [ibrutinib]
In short: (§1)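 A 30 min treatment with 10 μM compound was applied to crude K562 extract at 1 mg/mL protein in PBS pH 7.4 with 1 mM MgCl2. Heating for 3 min spanned 48°C-58°C, after which aliquots were pooled, adjusted to 0.5% NP-40 at 4°C and spun at 21,000xg for 90 min. TMTpro 16plex LC-MS/MS of the supernatant, with channel sums equalised, gave values recorded as log-two fold change in thermal stability against solvent controls, from duplicates.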

[1] = compound: CC(=O)c1cnc2ccc(-c3cc(Cl)c(O)c(Cl)c3)nc2c1N[C@H]1CC[C@H](CN(C)C)CC1
In short: as §1

ralimetinib = compound: CC(C)(C)Cn1c(N)nc2ccc(-c3[nH]c(C(C)(C)C)nc3-c3ccc(F)cc3)nc21 [ralimetinib]
In short: as §1

[2] = compound: CC(C)(O)CC(=O)NCCn1ccc2ncnc(Nc3ccc(Oc4cccc(C(F)(F)F)c4)c(Cl)c3)c21
In short: as §1

[3] = compound: CC(C)C1=C2N=C(C=C(N2N=C1)NCC3=CC=CC=C3)NCCCCCCN
In short: as §1

[4] = compound: CC1=C(C(CC(=O)N1)C2=CC=C(C=C2)C(F)(F)F)C(=O)NC3=C(C=C4C(=C3)C=NN4)F
In short: as §1

[5] = compound: CC1=C(C2=C(C=C1)C(=O)C3=CC=CC=C3N2CCCN)C
In short: as §1

[6] = compound: CC1=C(C=C(C=C1)NC(=O)C2=CC(=CC=C2)C(C)(C)C#N)NC3=CC4=C(C=C3)N=CN(C4=O)C
In short: as §1

[7] = compound: CC1=C(C=C(C=C1)NC(=O)C2=CC(=CC=C2)N(C)C)NC(=O)C3=CC=C(C=C3)O
In short: as §1

[8] = compound: CC1=CC=C(C=C1)SC2=C3C=C(SC3=CN=C2)C(=O)N
In short: as §1

Target | log2 fold change (ibrutinib) | log2 fold change [1] | log2 fold change (ralimetinib) | log2 fold change [2] | log2 fold change [3] | log2 fold change [4] | log2 fold change [5] | log2 fold change [6] | log2 fold change [7] | log2 fold change [8]
HNRNPDL (UniProt O14979) | inactive: 0 | active: -0.692 | inactive: -0.027 | inactive: 0.014 | inactive: -0.011 | inactive: 0.013 | inactive: -0.016 | inactive: 0.111 | inactive: -0.011 | inactive: 0
HSF1 (UniProt Q00613) | inactive: 0.019 | inactive: -0.035 | inactive: 0.006 | inactive: 0.004 | inactive: -0.005 | inactive: 0.01 | inactive: 0.03 | inactive: 0.006 | inactive: 0.028 | inactive: 0.001
HNRNPH1 (UniProt P31943) | inactive: 0 | inactive: -0.026 | inactive: -0.002 | inactive: -0.011 | inactive: 0.019 | inactive: 0.02 | inactive: 0.018 | inactive: 0.028 | inactive: -0.001 | inactive: -0.002
HERC4 (UniProt Q5GLZ8) | inactive: 0.021 | inactive: -0.017 | inactive: 0.036 | inactive: 0.005 | inactive: 0.012 | inactive: -0.006 | inactive: 0.002 | inactive: 0.004 | inactive: -0.004 | inactive: 0.016
HEXB (UniProt P07686) | inactive: -0.01 | inactive: 0.002 | inactive: 0.001 | inactive: 0.006 | inactive: -0.003 | inactive: -0.013 | inactive: 0 | inactive: -0.028 | inactive: 0 | inactive: -0.005
HMG20A (UniProt Q9NP66) | inactive: -0.052 | inactive: 0.08 | inactive: -0.014 | inactive: 0.017 | inactive: -0.021 | inactive: 0.023 | inactive: 0.076 | inactive: -0.157 | inactive: -0.001 | inactive: -0.048
HOMER1 (UniProt Q86YM7) | inactive: -0.088 | inactive: 0.04 | inactive: -0.02 | inactive: -0.063 | inactive: 0 | inactive: 0.049 | inactive: -0.042 | inactive: -0.066 | inactive: -0.047 | inactive: 0.047
HSPA2 (UniProt P54652) | inactive: 0.036 | inactive: 0.02 | inactive: 0.019 | inactive: -0.118 | inactive: -0.02 | inactive: -0.006 | inactive: 0.004 | inactive: 0.022 | inactive: 0.065 | inactive: -0.11
HEXA (UniProt P06865) | inactive: -0.006 | inactive: -0.006 | inactive: -0.013 | inactive: -0.014 | inactive: 0.007 | inactive: 0.012 | inactive: 0.001 | inactive: 0.004 | inactive: -0.011 | inactive: 0.001
HECTD3 (UniProt Q5T447) | inactive: 0.054 | inactive: 0.019 | inactive: 0.037 | inactive: -0.027 | inactive: -0.022 | inactive: -0.043 | inactive: 0.022 | inactive: -0.014 | inactive: 0.002 | inactive: 0.011
HECTD1 (UniProt Q9ULT8) | inactive: -0.034 | inactive: -0.012 | inactive: -0.027 | inactive: 0 | inactive: -0.004 | inactive: -0.007 | inactive: -0.037 | inactive: 0.004 | inactive: 0.019 | inactive: -0.016
HNRNPAB isoform 3 (UniProt Q99729) | inactive: -0.029 | inactive: -0.159 | inactive: -0.037 | inactive: 0.006 | inactive: -0.007 | inactive: 0.055 | inactive: -0.003 | inactive: -0.01 | inactive: -0.013 | inactive: 0
HM13 (UniProt Q8TCT9) | inactive: 0.027 | inactive: 0.038 | inactive: -0.006 | inactive: -0.045 | inactive: 0 | inactive: -0.01 | inactive: 0.016 | inactive: 0.038 | inactive: 0.011 | inactive: -0.012
HOXB9 (UniProt P17482) | inactive: 0.21 | inactive: 0.038 | inactive: 0.041 | inactive: 0.138 | inactive: 0.084 | inactive: -0.011 | inactive: -0.08 | inactive: 0.274 | inactive: -0.014 | inactive: -0.004
HNRNPA1 (UniProt H0YH80) | inactive: 0.214 | inactive: -0.056 | inactive: -0.068 | inactive: 0.028 | inactive: 0.074 | inactive: 0.038 | inactive: 0.087 | inactive: 0.055 | inactive: -0.017 | inactive: 0.017
HSPA4 (UniProt P34932) | inactive: -0.003 | inactive: -0.009 | inactive: -0.004 | inactive: 0.027 | inactive: -0.012 | inactive: -0.012 | inactive: 0.004 | inactive: -0.018 | inactive: 0.009 | inactive: 0.014
HHEX (UniProt Q03014) | inactive: -0.079 | inactive: 0.016 | inactive: -0.076 | inactive: -0.042 | inactive: -0.068 | inactive: 0.058 | inactive: 0.016 | inactive: -0.204 | inactive: 0.027 | inactive: 0.142
HMGA1 (UniProt P17096) | inactive: 0.004 | inactive: -0.022 | inactive: -0.024 | inactive: -0.043 | inactive: 0.002 | inactive: -0.03 | inactive: 0.075 | inactive: -0.008 | inactive: -0.023 | inactive: -0.017
HIP1R (UniProt O75146) | inactive: -0.008 | inactive: -0.006 | inactive: -0.012 | inactive: -0.057 | inactive: -0.016 | inactive: 0.041 | inactive: 0.013 | inactive: 0.005 | inactive: 0.018 | inactive: -0.012
HIBADH (UniProt P31937) | inactive: 0.02 | inactive: 0.006 | inactive: 0.028 | inactive: -0.032 | inactive: -0.014 | inactive: -0.01 | inactive: -0.002 | inactive: 0.002 | inactive: -0.02 | inactive: -0.003
HMBS (UniProt P08397) | inactive: -0.011 | inactive: 0.006 | inactive: -0.025 | inactive: -0.005 | inactive: -0.012 | inactive: -0.026 | inactive: -0.01 | inactive: -0.001 | inactive: -0.013 | inactive: -0.003
HSD17B12 (UniProt Q53GQ0) | inactive: -0.016 | inactive: 0.004 | inactive: -0.026 | inactive: 0.048 | inactive: 0.069 | inactive: 0 | inactive: 0.024 | inactive: -0.036 | inactive: 0.049 | inactive: 0.003
HMGN3 (UniProt Q15651) | inactive: 0.014 | inactive: -0.009 | inactive: 0.037 | inactive: -0.05 | inactive: 0.027 | inactive: -0.006 | inactive: 0.053 | inactive: 0.024 | inactive: 0.089 | inactive: -0.066
HINT2 (UniProt Q9BX68) | inactive: 0.071 | inactive: -0.009 | inactive: 0.065 | inactive: 0.001 | inactive: 0 | inactive: -0.054 | inactive: -0.017 | inactive: 0.024 | inactive: -0.014 | inactive: 0.077
HEBP2 (UniProt Q9Y5Z4) | inactive: 0.007 | inactive: -0.017 | inactive: 0.004 | inactive: -0.029 | inactive: -0.03 | inactive: -0.051 | inactive: -0.003 | inactive: 0.012 | inactive: -0.021 | inactive: -0.004
HIF1AN (UniProt Q9NWT6) | inactive: 0.034 | inactive: 0.006 | inactive: 0.018 | inactive: 0.011 | inactive: 0.016 | inactive: 0.023 | inactive: 0.026 | inactive: -0.11 | inactive: -0.072 | inactive: -0.07
HIP1 (UniProt O00291) | inactive: 0.001 | inactive: -0.007 | inactive: 0.029 | inactive: -0.025 | inactive: -0.006 | inactive: 0.017 | inactive: -0.003 | inactive: 0.002 | inactive: 0.019 | inactive: -0.022
HELZ (UniProt P42694) | inactive: 0.01 | inactive: -0.061 | inactive: 0.01 | inactive: -0.029 | inactive: 0.027 | inactive: 0.05 | inactive: 0.008 | inactive: -0.143 | inactive: -0.015 | inactive: -0.019
HNRNPD isoform 3 (UniProt Q14103) | inactive: -0.081 | inactive: -0.065 | inactive: -0.046 | inactive: 0.104 | inactive: -0.026 | inactive: -0.096 | inactive: -0.052 | inactive: 0 | inactive: 0.036 | inactive: -0.007
HNRNPA0 (UniProt Q13151) | inactive: 0.011 | inactive: -0.041 | inactive: 0.023 | inactive: 0.007 | inactive: 0.011 | inactive: -0.004 | inactive: -0.005 | inactive: 0.036 | inactive: -0.017 | inactive: 0.019
